The record followed here is ChEMBL document CHEMBL5500364, “Design, synthesis, and biological evaluation of some 2-(3-oxo-5,6-diphenyl-1,2,4-triazin-2(3H)-yl)-N-phenylacetamide hybrids as MTDLs for Alzheimer's disease therapy” (Eur J Med Chem, 2024).

This data set can be described thus: Permeability of compound in PBS at pH 7.4 incubated for 18 hrs by PAMPA-BBB assay.

The molecule `COc1cc2c(cc1OC)C(=O)C(CC1CCN(Cc3ccccc3)CC1)C2` (stereo unspecified) [DONEPEZIL] displayed an apparent permeability coefficient (Papp) at 18 h of 6.14 ×10⁻⁶ cm/s.
